No constants are given. Whether binding was seen depends on the method and setting. Binding seen in cells or lysates may run through a third protein. Here binding means that the protein was enriched with, or labelled near, the bait; the list need not be complete. Where a sequence is shown, tags or fusion partners need not be part of it.
T1: H2aG78R uncleavable mutant fused through its C-terminus to a 38-amino acid streptavidin binding peptide (human) (UniProt P07307)
T1 sequence: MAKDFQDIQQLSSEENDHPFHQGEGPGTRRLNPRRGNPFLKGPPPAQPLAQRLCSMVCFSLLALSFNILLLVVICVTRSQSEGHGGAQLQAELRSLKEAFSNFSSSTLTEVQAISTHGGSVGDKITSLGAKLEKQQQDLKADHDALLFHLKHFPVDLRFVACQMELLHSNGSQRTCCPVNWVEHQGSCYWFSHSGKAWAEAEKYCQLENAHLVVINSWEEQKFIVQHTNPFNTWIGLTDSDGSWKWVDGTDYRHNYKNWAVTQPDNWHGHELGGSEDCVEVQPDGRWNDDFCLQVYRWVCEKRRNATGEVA

Protein sequences, listed by entry. Tags and fused reporters are not part of them. Residues count along the entry.
UniProt Q9NYU2, residues 43-1555: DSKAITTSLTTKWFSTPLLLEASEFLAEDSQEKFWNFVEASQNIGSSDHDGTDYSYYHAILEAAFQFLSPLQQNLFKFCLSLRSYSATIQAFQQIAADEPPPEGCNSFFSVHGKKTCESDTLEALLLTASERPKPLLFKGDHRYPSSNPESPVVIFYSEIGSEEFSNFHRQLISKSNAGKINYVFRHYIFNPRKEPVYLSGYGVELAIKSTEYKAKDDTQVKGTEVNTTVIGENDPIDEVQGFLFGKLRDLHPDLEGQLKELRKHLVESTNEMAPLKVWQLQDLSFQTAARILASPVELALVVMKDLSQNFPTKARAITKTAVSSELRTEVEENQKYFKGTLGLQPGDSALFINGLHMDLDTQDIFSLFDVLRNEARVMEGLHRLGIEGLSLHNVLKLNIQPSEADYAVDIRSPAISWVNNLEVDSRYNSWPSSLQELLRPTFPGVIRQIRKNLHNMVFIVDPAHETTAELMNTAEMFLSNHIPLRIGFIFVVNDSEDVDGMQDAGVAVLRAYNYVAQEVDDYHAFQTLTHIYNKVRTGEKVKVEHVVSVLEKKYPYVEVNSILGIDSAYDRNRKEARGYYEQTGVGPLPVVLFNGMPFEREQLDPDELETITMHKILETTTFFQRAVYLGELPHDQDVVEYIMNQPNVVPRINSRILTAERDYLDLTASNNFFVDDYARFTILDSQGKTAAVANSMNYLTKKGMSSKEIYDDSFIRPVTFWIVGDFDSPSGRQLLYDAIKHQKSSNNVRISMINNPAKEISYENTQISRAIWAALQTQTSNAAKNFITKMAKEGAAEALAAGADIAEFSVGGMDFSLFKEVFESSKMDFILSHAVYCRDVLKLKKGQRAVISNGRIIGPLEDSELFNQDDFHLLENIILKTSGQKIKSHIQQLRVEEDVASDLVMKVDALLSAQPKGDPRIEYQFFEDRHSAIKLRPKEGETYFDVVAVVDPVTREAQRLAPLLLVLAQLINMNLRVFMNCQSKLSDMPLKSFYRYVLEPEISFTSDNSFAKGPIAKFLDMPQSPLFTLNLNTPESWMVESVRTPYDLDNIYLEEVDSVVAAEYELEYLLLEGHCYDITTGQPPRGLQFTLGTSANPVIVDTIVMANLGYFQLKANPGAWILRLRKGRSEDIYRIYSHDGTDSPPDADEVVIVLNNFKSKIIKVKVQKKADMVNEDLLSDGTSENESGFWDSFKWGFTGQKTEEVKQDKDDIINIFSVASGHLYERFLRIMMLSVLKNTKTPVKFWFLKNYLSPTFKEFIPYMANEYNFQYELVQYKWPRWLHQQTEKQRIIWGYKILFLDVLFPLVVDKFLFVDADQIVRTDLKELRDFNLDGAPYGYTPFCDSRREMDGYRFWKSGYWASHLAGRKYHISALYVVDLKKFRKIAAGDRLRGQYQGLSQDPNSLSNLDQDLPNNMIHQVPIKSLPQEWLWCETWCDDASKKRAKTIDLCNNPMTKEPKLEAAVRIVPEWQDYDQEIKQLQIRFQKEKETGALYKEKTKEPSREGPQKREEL
UniProt P27824, residues 21-592: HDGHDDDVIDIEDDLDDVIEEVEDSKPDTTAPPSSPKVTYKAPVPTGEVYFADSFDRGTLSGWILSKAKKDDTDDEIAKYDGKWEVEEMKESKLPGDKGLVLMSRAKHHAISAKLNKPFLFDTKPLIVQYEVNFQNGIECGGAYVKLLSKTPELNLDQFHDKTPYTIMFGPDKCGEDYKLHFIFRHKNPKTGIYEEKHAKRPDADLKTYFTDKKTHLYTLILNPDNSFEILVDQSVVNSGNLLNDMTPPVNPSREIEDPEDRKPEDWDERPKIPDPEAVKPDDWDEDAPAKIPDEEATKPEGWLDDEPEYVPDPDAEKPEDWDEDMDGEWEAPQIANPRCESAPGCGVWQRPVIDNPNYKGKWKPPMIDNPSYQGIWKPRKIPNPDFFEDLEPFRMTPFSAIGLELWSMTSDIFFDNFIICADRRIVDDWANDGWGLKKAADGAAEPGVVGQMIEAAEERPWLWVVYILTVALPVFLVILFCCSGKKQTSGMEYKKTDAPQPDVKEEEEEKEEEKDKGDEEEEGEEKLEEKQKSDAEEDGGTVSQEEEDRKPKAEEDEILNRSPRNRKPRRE
UniProt Q13148: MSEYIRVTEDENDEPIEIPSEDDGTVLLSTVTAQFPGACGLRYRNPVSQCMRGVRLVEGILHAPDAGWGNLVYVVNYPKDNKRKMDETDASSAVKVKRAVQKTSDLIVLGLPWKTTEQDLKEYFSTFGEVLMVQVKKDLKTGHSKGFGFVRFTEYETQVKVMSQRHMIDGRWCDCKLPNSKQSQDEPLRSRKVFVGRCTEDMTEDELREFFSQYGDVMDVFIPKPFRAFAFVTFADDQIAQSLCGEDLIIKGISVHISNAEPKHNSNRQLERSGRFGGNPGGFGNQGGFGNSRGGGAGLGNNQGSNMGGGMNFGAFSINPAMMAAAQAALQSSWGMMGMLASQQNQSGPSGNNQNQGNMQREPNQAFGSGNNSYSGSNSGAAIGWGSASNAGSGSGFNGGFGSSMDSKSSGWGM
UniProt Q9UHD9: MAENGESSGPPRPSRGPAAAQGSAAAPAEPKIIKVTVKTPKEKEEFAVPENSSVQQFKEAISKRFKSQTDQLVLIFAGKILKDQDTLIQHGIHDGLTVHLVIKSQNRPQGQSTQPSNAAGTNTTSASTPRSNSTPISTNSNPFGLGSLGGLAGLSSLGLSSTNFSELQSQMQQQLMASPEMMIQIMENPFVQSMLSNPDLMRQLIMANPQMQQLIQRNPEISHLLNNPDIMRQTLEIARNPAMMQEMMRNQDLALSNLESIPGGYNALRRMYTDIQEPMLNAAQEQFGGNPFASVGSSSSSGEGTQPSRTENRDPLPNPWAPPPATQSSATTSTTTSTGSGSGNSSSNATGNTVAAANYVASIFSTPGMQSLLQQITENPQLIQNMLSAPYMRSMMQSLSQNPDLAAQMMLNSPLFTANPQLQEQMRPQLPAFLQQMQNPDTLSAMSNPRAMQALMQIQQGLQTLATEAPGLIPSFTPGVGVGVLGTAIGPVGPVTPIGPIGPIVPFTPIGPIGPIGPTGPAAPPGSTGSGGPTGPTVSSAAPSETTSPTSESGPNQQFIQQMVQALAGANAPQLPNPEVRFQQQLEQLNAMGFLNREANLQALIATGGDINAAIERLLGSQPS

B1: Selenoprotein 15 (protein, UniProt O60613 32-165)
chain: FGAEFSSEACRELGFSSNLLCSSCDLLGQFNLLQLDPDCRGCCQEEAQFETKKLYAGAILEVCGUKLGRFPQVQAFVRSDKPKLFRGLQIKYVRGSDPVLKLLDDNGNIAEELSILKWNTDSVEEFLSEKLERI
B2: SSRA (protein, UniProt P43307 19-286)
chain: VLFRGGPRGLLAVAQDLTEDEETVEDSIIEDEDDEAEVEEDEPTDLVEDKEEEDVSGEPEASPSADTTILFVKGEDFPANNIVKFLVGFTNKGTEDFIVESLDASFRYPQDYQFYIQNFTALPLNTVVPPQRQATFEYSFIPAEPMGGRPFGLVINLNYKDLNGNVFQDAVFNQTVTVIEREDGLDGETIFMYMFLAGLGLLVIVGLHQLLESRKRKRPIQKVEMGTSSQNDVDMSWIPQETLNQINKASPRRLPRKRAQKRSVGSDE
B3: OSTC (protein, UniProt Q9NRP0 1-149)
chain: METLYRVPFLVLECPNLKLKKPPWLHMPSAMTVYALVVVSYFLITGGIIYDVIVEPPSVGSMTDEHGHQRPVAFLAYRVNGQYIMEGLASSFLFTMGGLGFIILDRSNAPNIPKLNRFLLLFIGFVCVLLSFFMARVFMRMKLPGYLMG
B4: STT3 oligosaccharyltransferase complex catalytic subunit A (enzyme, UniProt P46977 1-705)
chain: MTKFGFLRLSYEKQDTLLKLLILSMAAVLSFSTRLFAVLRFESVIHEFDPYFNYRTTRFLAEEGFYKFHNWFDDRAWYPLGRIIGGTIYPGLMITSAAIYHVLHFFHITIDIRNVCVFLAPLFSSFTTIVTYHLTKELKDAGAGLLAAAMIAVVPGYISRSVAGSYDNEGIAIFCMLLTYYMWIKAVKTGSICWAAKCALAYFYMVSSWGGYVFLINLIPLHVLVLMLTGRFSHRIYVAYCTVYCLGTILSMQISFVGFQPVLSSEHMAAFGVFGLCQIHAFVDYLRSKLNPQQFEVLFRSVISLVGFVLLTVGALLMLTGKISPWTGRFYSLLDPSYAKNNIPIIASVSEHQPTTWSSYYFDLQLLVFMFPVGLYYCFSNLSDARIFIIMYGVTSMYFSAVMVRLMLVLAPVMCILSGIGVSQVLSTYMKNLDISRPDKKSKKQQDSTYPIKNEVASGMILVMAFFLITYTFHSTWVTSEAYSSPSIVLSARGGDGSRIIFDDFREAYYWLRHNTPEDAKVMSWWDYGYQITAMANRTILVDNNTWNNTHISRVGQAMASTEEKAYEIMRELDVSYVLVIFGGLTGYSSDDINKFLWMVRIGGSTDTGKHIKENDYYTPTGEFRVDREGSPVLLNCLMYKMCYYRFGQVYTEAKRPPGFDRVRNAEIGNKDFELDVLEEAYTTEHWLVRIYKVKDLDNRGLSRT
B5: MAGT1 (protein, UniProt Q9H0U3 30-335)
chain: QRKKEMVLSEKVSQLMEWTNKRPVIRMNGDKFRRLVKAPPRNYSVIVMFTALQLHRQCVVCKQADEEFQILANSWRYSSAFTNRIFFAMVDFDEGSDVFQMLNMNSAPTFINFPAKGKPKRGDTYELQVRGFSAEQIARWIADRTDVNIRVIRPPNYAGPLMLGLLLAVIGGLVYLRRSNMEFLFNKTGWAFAALCFVLAMTSGQMWNHIRGPPYAHKNPHTGHVNYIHGSSQAQFVAETHIVLLFNGGVTLGMVLLCEAATSDMDIGKRKIMCVAGIGLVVLFFSWMLSIFRSKYHGYPYSFLMS

Molecular target: T1, H2aG78R uncleavable mutant fused through its C-terminus to a 38-amino acid streptavidin binding peptide (human)
Assay: affinity purification with mass spectrometry; SILAC; SBP6 cells (H2aSBP) and HEK293 control cells, with or without 50 μM MG-132 + 50 μM ALLN for 4 h, 2 mM puromycin for the last 15 min; lysis in 1% digitonin in PBS; lysates mixed 1:1; streptavidin beads overnight; elution with 250 μM biotin; SDS-PAGE, trypsin, nano LC-MS/MS; hits with >2-fold ratio labeled/unlabeled

Molecule	binding
UDP-glucose glycoprotein glucosyltransferase 1 (from UniProt Q9NYU2 43-1555) (enzyme)	binds
calnexin (from UniProt P27824 21-592)	binds
TAR DNA-binding protein 43 (from UniProt Q13148 1-414)	binds
UBQL2 (from UniProt Q9UHD9 1-624)	binds
ubiquitin (human (endogenous in HEK293))	binds
B1	binds
B2	binds
B3	binds
B4	binds
B5	binds
